Laboratory results as given in the supplement of paper PMC10849652.
Some of the results follow.

Chains of the proteins cited; added tags and fusions are not shown. Lines headed by an entry give the natural chain unless they say otherwise; changes in a name come on top.
UniProt P22314: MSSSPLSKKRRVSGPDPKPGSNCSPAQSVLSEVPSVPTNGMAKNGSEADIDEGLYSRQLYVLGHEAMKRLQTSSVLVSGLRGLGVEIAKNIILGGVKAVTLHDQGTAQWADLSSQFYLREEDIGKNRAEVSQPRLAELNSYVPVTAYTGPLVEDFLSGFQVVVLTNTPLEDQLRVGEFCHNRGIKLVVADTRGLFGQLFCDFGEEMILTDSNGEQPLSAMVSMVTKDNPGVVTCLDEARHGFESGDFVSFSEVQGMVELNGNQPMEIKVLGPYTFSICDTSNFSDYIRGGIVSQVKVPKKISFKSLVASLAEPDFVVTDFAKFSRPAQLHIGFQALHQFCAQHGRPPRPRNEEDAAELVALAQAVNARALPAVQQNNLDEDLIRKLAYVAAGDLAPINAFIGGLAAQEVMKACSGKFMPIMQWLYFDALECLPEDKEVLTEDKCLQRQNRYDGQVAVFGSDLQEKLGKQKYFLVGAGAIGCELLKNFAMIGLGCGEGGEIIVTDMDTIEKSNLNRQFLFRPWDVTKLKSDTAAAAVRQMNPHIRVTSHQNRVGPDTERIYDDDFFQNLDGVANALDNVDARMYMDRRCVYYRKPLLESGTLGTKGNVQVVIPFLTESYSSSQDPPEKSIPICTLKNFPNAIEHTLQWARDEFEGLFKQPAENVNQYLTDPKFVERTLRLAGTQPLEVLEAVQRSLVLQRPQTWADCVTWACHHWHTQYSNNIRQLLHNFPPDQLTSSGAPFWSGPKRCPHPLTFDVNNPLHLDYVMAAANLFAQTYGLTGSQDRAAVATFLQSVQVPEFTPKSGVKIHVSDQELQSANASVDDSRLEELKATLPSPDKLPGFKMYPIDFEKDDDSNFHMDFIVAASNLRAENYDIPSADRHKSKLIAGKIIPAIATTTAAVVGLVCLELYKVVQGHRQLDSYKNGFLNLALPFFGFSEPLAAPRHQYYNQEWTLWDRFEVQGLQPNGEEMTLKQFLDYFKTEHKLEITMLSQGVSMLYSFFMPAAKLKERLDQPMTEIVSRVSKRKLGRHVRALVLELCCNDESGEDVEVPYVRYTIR
UniProt Q9NPD8: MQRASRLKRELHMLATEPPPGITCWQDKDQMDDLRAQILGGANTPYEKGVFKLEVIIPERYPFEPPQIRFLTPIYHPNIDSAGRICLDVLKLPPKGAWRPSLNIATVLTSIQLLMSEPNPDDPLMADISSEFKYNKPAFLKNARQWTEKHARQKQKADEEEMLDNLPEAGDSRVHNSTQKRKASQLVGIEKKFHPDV
UniProt Q15819: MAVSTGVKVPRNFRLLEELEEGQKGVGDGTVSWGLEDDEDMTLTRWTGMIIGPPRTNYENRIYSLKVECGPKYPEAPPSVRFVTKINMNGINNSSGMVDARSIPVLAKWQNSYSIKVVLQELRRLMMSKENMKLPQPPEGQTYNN
UniProt Q96RR1: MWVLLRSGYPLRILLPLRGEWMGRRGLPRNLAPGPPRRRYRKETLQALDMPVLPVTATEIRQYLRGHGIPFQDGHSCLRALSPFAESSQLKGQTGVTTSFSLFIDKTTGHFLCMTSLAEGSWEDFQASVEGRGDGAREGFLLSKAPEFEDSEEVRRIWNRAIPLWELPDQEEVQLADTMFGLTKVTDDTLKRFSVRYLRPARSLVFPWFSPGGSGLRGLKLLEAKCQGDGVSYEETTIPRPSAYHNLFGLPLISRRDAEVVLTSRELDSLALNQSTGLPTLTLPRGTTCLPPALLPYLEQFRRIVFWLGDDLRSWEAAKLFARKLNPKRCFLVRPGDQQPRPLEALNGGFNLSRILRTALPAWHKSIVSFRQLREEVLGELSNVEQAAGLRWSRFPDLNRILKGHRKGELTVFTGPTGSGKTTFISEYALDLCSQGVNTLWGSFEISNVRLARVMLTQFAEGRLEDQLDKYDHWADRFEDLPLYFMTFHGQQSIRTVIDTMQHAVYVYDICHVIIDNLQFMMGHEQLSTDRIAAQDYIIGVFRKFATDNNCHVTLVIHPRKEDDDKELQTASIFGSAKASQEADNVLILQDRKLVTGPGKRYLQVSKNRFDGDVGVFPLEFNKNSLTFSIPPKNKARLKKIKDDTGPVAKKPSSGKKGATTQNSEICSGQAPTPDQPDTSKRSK
UniProt P68371, whole entry, looked up: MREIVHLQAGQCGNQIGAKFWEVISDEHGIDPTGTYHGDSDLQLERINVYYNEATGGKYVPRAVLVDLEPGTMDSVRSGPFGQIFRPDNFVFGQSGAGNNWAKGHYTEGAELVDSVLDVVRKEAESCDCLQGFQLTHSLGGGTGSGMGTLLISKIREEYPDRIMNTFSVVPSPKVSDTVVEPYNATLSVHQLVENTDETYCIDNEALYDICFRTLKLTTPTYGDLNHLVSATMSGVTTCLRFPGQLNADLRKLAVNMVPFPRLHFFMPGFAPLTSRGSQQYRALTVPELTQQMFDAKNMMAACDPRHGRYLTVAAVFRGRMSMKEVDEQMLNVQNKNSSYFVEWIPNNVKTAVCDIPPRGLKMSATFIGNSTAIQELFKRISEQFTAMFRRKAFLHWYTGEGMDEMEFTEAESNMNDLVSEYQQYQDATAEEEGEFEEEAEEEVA
UniProt P0CG48, whole entry, looked up: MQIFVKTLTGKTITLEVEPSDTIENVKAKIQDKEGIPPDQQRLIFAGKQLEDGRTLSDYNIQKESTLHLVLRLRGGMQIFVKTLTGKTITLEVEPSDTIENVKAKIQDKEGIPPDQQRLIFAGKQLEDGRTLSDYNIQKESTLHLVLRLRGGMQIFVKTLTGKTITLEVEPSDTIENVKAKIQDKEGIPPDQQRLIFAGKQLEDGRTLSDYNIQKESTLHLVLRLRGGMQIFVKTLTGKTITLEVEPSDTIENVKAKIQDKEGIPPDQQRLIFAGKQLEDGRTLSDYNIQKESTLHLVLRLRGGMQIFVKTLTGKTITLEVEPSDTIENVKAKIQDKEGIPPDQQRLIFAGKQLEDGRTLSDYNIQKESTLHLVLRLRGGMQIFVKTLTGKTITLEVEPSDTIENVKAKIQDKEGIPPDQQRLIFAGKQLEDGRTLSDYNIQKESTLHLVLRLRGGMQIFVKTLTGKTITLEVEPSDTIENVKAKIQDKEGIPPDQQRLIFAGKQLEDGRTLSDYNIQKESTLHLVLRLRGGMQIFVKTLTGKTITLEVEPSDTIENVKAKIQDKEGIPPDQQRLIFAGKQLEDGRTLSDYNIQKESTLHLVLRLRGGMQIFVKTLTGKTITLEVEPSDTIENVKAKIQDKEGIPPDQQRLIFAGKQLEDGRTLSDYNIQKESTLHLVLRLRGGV
UniProt Q8NG11: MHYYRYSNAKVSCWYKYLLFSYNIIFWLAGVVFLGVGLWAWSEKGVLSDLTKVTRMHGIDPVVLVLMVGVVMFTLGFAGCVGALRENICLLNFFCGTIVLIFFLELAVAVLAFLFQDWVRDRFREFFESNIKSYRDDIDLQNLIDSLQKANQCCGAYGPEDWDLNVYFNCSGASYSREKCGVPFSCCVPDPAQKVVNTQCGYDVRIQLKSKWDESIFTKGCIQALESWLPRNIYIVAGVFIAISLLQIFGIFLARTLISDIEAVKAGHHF
UniProt Q8TBC4: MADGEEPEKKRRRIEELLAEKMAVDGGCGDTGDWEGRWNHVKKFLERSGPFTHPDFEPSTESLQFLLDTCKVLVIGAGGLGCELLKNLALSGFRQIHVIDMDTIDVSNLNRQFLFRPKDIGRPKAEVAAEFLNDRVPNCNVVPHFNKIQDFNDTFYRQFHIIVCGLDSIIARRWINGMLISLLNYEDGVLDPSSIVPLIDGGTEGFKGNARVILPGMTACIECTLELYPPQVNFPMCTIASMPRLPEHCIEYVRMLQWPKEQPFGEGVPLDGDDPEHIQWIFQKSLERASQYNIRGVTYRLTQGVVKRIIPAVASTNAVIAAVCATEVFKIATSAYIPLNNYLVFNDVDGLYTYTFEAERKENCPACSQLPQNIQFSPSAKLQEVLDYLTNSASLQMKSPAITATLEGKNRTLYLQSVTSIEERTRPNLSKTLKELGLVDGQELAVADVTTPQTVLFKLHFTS
UniProt Q3KQV9: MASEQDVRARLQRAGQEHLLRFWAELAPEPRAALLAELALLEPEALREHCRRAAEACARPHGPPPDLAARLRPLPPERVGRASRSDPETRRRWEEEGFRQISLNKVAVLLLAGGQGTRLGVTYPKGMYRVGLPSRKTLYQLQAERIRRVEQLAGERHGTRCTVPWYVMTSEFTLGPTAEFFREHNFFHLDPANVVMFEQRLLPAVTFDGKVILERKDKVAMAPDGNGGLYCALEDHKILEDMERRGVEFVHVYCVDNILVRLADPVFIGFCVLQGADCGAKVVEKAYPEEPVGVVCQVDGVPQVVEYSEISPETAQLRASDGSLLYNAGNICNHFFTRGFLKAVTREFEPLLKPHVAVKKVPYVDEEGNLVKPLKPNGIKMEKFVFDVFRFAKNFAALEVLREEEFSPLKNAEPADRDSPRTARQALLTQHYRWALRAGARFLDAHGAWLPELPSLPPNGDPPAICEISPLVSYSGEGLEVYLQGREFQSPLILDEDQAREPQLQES
UniProt P68366, whole entry, looked up: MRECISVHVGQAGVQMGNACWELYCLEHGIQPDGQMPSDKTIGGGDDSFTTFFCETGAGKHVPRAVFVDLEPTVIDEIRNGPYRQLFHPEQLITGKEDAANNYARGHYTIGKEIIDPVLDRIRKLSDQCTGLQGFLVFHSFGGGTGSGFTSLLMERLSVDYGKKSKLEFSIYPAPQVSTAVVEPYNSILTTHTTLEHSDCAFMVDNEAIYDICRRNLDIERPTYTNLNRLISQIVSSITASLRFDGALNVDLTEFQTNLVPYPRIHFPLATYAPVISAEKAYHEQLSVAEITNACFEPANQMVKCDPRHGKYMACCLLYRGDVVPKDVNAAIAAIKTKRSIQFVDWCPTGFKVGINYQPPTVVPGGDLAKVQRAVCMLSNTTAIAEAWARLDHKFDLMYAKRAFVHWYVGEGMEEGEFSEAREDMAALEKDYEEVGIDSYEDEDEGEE
UniProt Q9Y385: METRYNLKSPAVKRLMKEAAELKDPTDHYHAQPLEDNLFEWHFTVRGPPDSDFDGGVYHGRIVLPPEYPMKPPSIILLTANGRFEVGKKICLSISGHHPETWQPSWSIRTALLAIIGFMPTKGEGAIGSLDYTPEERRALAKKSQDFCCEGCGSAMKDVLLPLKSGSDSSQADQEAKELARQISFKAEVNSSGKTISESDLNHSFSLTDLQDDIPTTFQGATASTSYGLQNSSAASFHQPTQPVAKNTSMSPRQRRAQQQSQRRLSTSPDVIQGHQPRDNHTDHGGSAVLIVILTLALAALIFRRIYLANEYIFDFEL
UniProt Q9Y5U2: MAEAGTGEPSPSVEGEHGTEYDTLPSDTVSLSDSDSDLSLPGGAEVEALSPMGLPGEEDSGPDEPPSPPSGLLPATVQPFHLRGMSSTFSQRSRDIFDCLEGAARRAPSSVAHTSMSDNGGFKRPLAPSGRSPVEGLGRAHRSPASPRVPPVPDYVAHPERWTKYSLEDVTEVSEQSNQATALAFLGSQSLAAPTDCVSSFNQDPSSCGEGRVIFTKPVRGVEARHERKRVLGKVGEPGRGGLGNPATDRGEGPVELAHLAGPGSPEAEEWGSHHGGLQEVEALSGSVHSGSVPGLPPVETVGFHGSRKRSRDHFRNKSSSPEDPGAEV
UniProt P68363, whole entry, looked up: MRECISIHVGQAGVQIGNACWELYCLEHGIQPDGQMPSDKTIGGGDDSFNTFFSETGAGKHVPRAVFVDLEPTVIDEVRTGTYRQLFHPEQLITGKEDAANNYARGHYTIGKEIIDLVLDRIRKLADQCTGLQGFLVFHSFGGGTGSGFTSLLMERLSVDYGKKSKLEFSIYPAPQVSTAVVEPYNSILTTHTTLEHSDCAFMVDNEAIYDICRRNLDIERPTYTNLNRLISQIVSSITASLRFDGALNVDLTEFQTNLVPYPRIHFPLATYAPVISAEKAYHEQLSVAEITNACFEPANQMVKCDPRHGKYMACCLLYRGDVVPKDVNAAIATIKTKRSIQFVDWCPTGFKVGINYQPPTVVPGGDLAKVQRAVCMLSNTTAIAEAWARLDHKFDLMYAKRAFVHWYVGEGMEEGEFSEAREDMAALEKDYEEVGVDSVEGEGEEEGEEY
UniProt Q8N5M4: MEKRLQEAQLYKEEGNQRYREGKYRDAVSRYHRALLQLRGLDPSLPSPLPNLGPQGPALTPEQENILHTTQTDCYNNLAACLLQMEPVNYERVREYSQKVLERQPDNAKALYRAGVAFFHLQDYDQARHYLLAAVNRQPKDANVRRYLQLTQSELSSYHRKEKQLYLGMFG
UniProt Q6IBS0: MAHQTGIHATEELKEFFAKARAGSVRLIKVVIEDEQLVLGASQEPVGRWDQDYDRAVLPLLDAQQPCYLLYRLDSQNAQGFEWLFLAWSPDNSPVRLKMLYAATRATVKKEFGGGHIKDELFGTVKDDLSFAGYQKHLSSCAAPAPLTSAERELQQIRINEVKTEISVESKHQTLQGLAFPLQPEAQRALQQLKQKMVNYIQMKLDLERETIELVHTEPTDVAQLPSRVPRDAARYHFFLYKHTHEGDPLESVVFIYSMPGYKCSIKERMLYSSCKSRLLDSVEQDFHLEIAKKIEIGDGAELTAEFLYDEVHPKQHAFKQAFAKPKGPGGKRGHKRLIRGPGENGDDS

Key:
Test in all cases: log2 fold change, soluble protein after heating vs DMSO (PISA); higher = thermal stabilisation; K562 cells, 10 uM, 30 min; active = over 0.2 and 3.5 SD of the protein, either way, in both replicates (recomputed)
erlotinib = compound: C#Cc1cccc(Nc2ncnc3cc(OCCOC)c(OCCOC)cc23)c1 [erlotinib]
Procedure, shortened: (§1)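 K562 cells at 2×10^6 cells/mL were exposed to 10 μM compound for 30 min, then aliquots were heated for 3 min across 48°C-58°C, pooled, and extracted in PBS containing 0.5% NP-40 at 4°C. The supernatant after 21,000xg for 90 min was taken as soluble protein and measured by TMTpro 16plex LC-MS/MS with channel sums equalised. Thermal stability is reported relative to control samples, with values from duplicates. Fold changes are given on a log2 scale.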

[1] = compound: C/C(=N\NC(=O)C1=CC(=CC=C1)S(=O)(=O)N2CCOCC2)/C3=C(C=CC(=C3)Cl)O
Procedure, shortened: as §1

[2] = compound: C1=CC(=C(C=C1Cl)C2=NC3=NC=CN=C3C(=N2)NC4=CC=NC=C4)F
Procedure, shortened: as §1

[3] = compound: C1=CC(=CC=C1C2=NC3=C(N2)C=C(C=C3)C(=O)N)OC4=CC=C(C=C4)Cl
Procedure, shortened: as §1

[4] = compound: C1=CC2=C(C=CC(=C2)/C=C\3/C(=O)NC(=NCC4=CC=CS4)S3)N=C1
Procedure, shortened: as §1

[5] = compound: C1=CC2=NC=CN=C2C=C1/C=C/3\C(=O)NC(=O)S3
Procedure, shortened: as §1

[6] = compound: C1=CC=C(C=C1)C2=NC(=C(N2)C3=CC=NC=C3)C4=CC(=C(C=C4)Cl)O
Procedure, shortened: as §1

[7] = compound: C1=CC=C2C(=C1)C3=NNC4=CC=CC(=C43)C2=O
Procedure, shortened: as §1

[8] = compound: C1CCN(C1)C(=O)NC2=CC=CC(=C2)NC3=NC=C(C(=N3)NCCC4=CN=CN4)Br
Procedure, shortened: as §1

[9] = compound: C1CN(CCC1(CC2=CC=C(C=C2)Cl)N)C3=NC=NC4=C3C=CN4
Procedure, shortened: as §1

Measured: log2 fold change

TUFM (UniProt P49411)
inactive: erlotinib 0.04 | [1] 0.088 | [2] 0.08 | [3] -0.002 | [4] 0.017 | [5] -0.016 | [6] 0.065 | [7] 0.097 | [8] 0.013 | [9] -0.118

UAP1 (UniProt Q16222)
inactive: erlotinib 0.005 | [1] 0.042 | [2] 0.065 | [3] 0.005 | [4] 0.021 | [5] -0.048 | [6] -0.001 | [7] 0.004 | [8] 0.025 | [9] 0.025

UBA1 (UniProt P22314)
inactive: erlotinib 0.1 | [1] 0.166 | [2] 0.074 | [3] -0.024 | [4] 0.114 | [5] -0.004 | [6] 0.065 | [7] 0.023 | [8] -0.034 | [9] -0.175

TYW1 (UniProt Q9NV66)
inactive: erlotinib -0.045 | [1] 0.012 | [2] 0.055 | [3] 0.057 | [4] 0.003 | [5] 0.009 | [6] 0.042 | [7] 0.057 | [8] -0.041 | [9] 0.022

UBE2T (UniProt Q9NPD8)
inactive: erlotinib 0.023 | [1] 0.091 | [2] -0.022 | [3] 0.041 | [4] 0.002 | [5] 0.02 | [6] -0.005 | [7] -0.034 | [8] 0.005 | [9] 0.001

TTC33 (UniProt Q6PID6)
inactive: erlotinib 0.065 | [1] -0.035 | [2] 0.019 | [3] 0.001 | [4] 0.176 | [5] -0.107 | [6] -0.045 | [7] -0.038

UBE2V2 (UniProt Q15819)
inactive: erlotinib 0.027 | [1] 0.009 | [2] 0.042 | [3] -0.004 | [4] 0.015 | [5] -0.003 | [6] -0.034 | [7] 0.028 | [8] -0.009 | [9] 0.023

TWNK (UniProt Q96RR1)
inactive: erlotinib -0.044 | [1] -0.057 | [2] 0.1 | [3] 0.019 | [4] 0.061 | [5] 0.104 | [6] 0.026 | [7] -0.007 | [8] -0.001 | [9] -0.109

UBA6
inactive: erlotinib 0.011 | [1] 0.099 | [2] 0.06 | [3] 0.038 | [4] 0.014 | [5] -0.037 | [6] 0.014 | [7] 0.015 | [8] -0.024 | [9] -0.015

TUBB4B (UniProt P68371)
inactive: erlotinib -0.002 | [1] 0.098 | [2] 0.019 | [3] 0.052 | [4] -0.004 | [5] -0.053 | [6] 0.03 | [7] 0.031 | [8] -0.013 | [9] 0.06

TYW3 (UniProt Q6IPR3)
inactive: erlotinib 0.056 | [1] -0.036 | [2] -0.114 | [3] 0.034 | [4] -0.051 | [5] -0.051 | [6] -0.039 | [7] -0.019 | [8] -0.021 | [9] 0.062

UBC (UniProt P0CG48)
inactive: erlotinib -0.007 | [1] -0.021 | [2] -0.004 | [3] 0.011 | [4] 0.024 | [5] -0.044 | [6] -0.054 | [7] 0.009 | [8] 0.043 | [9] -0.041

TSPAN14 (UniProt Q8NG11)
inactive: erlotinib 0.007 | [1] -0.02 | [2] -0.008 | [3] -0.025 | [4] 0.049 | [5] 0.042 | [6] -0.073 | [7] -0.059 | [8] 0.024 | [9] 0.046

UBA3 (UniProt Q8TBC4)
inactive: erlotinib 0.046 | [1] 0.12 | [2] 0.098 | [3] 0 | [4] 0.049 | [5] 0.022 | [6] 0.043 | [7] 0.019 | [8] -0.009 | [9] -0.033

TUBB3 (UniProt Q13509)
inactive: erlotinib 0.023 | [1] 0.05 | [2] 0.037 | [3] 0.032 | [4] -0.022 | [5] -0.035 | [6] 0.095 | [7] 0.017 | [8] -0.024 | [9] 0.081

UAP1L1 (UniProt Q3KQV9)
inactive: erlotinib 0.01 | [1] -0.021 | [2] 0.057 | [3] 0.021 | [4] 0.023 | [5] 0.005 | [6] 0.032 | [7] -0.01 | [8] 0.014 | [9] 0.028

TUBA4A (UniProt P68366)
inactive: erlotinib 0.016 | [1] 0.048 | [2] 0.048 | [3] -0.038 | [4] 0.069 | [5] -0.04 | [6] -0.037 | [7] 0.027 | [8] -0.015 | [9] 0.075

TUBB2A (UniProt Q13885)
inactive: erlotinib 0.031 | [1] -0.008 | [2] 0.086 | [3] 0 | [4] -0.007 | [5] -0.008 | [6] -0.004 | [7] -0.007 | [8] -0.006 | [9] 0.051

UBE2E1 (UniProt P51965)
inactive: erlotinib -0.044 | [1] 0.1 | [2] 0.192 | [3] -0.043 | [4] -0.035 | [5] 0.048 | [6] 0.029 | [7] 0.04 | [8] -0.088 | [9] -0.081

8 consecutive entries already listed, quoted:
UBE2T (UniProt Q9NPD8)
inactive: erlotinib 0.023 | [1] 0.091 | [2] -0.022 | [3] 0.041 | [4] 0.002 | [5] 0.02 | [6] -0.005 | [7] -0.034 | [8] 0.005 | [9] 0.001

TTC33 (UniProt Q6PID6)
inactive: erlotinib 0.065 | [1] -0.035 | [2] 0.019 | [3] 0.001 | [4] 0.176 | [5] -0.107 | [6] -0.045 | [7] -0.038

UBE2V2 (UniProt Q15819)
inactive: erlotinib 0.027 | [1] 0.009 | [2] 0.042 | [3] -0.004 | [4] 0.015 | [5] -0.003 | [6] -0.034 | [7] 0.028 | [8] -0.009 | [9] 0.023

TWNK (UniProt Q96RR1)
inactive: erlotinib -0.044 | [1] -0.057 | [2] 0.1 | [3] 0.019 | [4] 0.061 | [5] 0.104 | [6] 0.026 | [7] -0.007 | [8] -0.001 | [9] -0.109

UBA6
inactive: erlotinib 0.011 | [1] 0.099 | [2] 0.06 | [3] 0.038 | [4] 0.014 | [5] -0.037 | [6] 0.014 | [7] 0.015 | [8] -0.024 | [9] -0.015

TUBB4B (UniProt P68371)
inactive: erlotinib -0.002 | [1] 0.098 | [2] 0.019 | [3] 0.052 | [4] -0.004 | [5] -0.053 | [6] 0.03 | [7] 0.031 | [8] -0.013 | [9] 0.06

TYW3 (UniProt Q6IPR3)
inactive: erlotinib 0.056 | [1] -0.036 | [2] -0.114 | [3] 0.034 | [4] -0.051 | [5] -0.051 | [6] -0.039 | [7] -0.019 | [8] -0.021 | [9] 0.062

UBC (UniProt P0CG48)
inactive: erlotinib -0.007 | [1] -0.021 | [2] -0.004 | [3] 0.011 | [4] 0.024 | [5] -0.044 | [6] -0.054 | [7] 0.009 | [8] 0.043 | [9] -0.041

Following part:

TSG101 (UniProt Q99816)
inactive: erlotinib 0.022 | [1] 0.054 | [2] 0.051 | [3] 0.027 | [4] 0.046 | [5] 0.004 | [6] -0.032 | [7] 0 | [8] 0.003 | [9] -0.006

TTI2 (UniProt Q6NXR4)
inactive: erlotinib 0 | [1] 0.053 | [2] 0.003 | [3] -0.035 | [4] 0.029 | [5] -0.036 | [6] -0.095 | [7] 0.046 | [8] 0.008 | [9] -0.028

UBE2J1 (UniProt Q9Y385)
inactive: erlotinib 0.053 | [1] 0.063 | [2] -0.033 | [3] 0.045 | [4] 0.148 | [5] 0.054 | [6] 0.043 | [7] 0.036 | [8] -0.097 | [9] 0.012

TSSC4 (UniProt Q9Y5U2)
inactive: erlotinib 0.175 | [1] -0.138 | [2] -0.031 | [3] -0.004 | [4] 0.021 | [5] 0.008 | [6] -0.101 | [7] -0.065 | [8] 0.013 | [9] 0.044

TXNL1 (UniProt O43396)
inactive: erlotinib -0.012 | [1] 0.096 | [2] 0.009 | [3] -0.031 | [4] -0.011 | [5] -0.018 | [6] 0.014 | [7] 0.016 | [8] -0.001 | [9] -0.077

TUBA1B (UniProt P68363)
inactive: erlotinib 0.027 | [1] -0.007 | [2] 0.034 | [3] 0.01 | [4] 0.014 | [5] 0.01 | [6] 0.016 | [7] -0.016 | [8] 0.02 | [9] 0.08

TTC9C (UniProt Q8N5M4)
inactive: erlotinib -0.055 | [1] 0.105 | [2] 0.013 | [3] -0.007 | [4] 0.047 | [5] 0.008 | [6] 0.048 | [7] 0.01 | [8] 0.018 | [9] 0.021

UBE2K (UniProt P61086)
inactive: erlotinib -0.005 | [1] 0.015 | [2] 0.121 | [3] -0.036 | [4] -0.045 | [5] -0.009 | [6] 0.119 | [7] -0.002 | [8] -0.009 | [9] 0.037

TWF2 (UniProt Q6IBS0)
inactive: erlotinib 0.045 | [1] 0.059 | [2] 0.066 | [3] 0.013 | [4] -0.008 | [5] 0.028 | [6] 0.001 | [7] 0.02 | [8] 0.031 | [9] -0.035

UBE2L3 isoform 3 (UniProt P68036)
inactive: erlotinib 0.022 | [1] -0.034 | [2] 0.045 | [3] 0.012 | [4] -0.049 | [5] 0.003 | [6] -0.027 | [7] 0 | [8] 0.044 | [9] 0.047

TUBGCP2 isoform 4 (UniProt Q9BSJ2)
inactive: erlotinib 0.058 | [1] -0.08 | [2] 0.017 | [3] 0.061 | [4] 0.126 | [5] -0.052 | [6] -0.052 | [7] 0.091 | [8] -0.112 | [9] -0.147
